The other results are listed elsewhere or left out.
The sequences below were run on KLF4 + histone octamer (assay: EMSA with sequencing). Conditions: 10 mM Tris-Cl pH 7.5, 50 mM NaCl, 1 mM DTT, 0.25 mg/ml BSA, 2 mM MgCl2, 0.025% Nonidet P-40, 5% glycerol; 28 nM nucleosome library; 10 min on ice then 30 min …; high values mean tight binding; double strand, one strand shown.

Sequence	binding signal (log2 relative supershift)
GATGGACCCTATACGCGGCCTACAATAATGATGTACAACATCCATCCTCACACTCAGGCAATAAGCTTTGTTTCTCATGCTCATGGGCAAGTGGTTCAGCTGAGTGGCTCTGCATCAGGCTGCAGTTGTTCAGTTGCCTGTAGTAGTTTGCAAGGGACTGAATGTGTCACCCCTCCCCCATTCATATGTTGAAAGCCTAACCTTCAATGTTGCCAGTCGGATAGTGTTCC	1.35
GATGGACCCTATACGCGGCTCCTCAAACCAGTGGCTTTGTTGGGTAGCACAAGGAGTTGGTCAAGAATATCAGCTGCCACACAGTCTTCAGTCCTGCTCATGAGCAGACAGGCGTACCACTTTTACTCAGATACCTAGCATTTCAATGCTCATTTAAATAATTCAGACTATACACATGTCTTAGCAGATTTTCCTCTTCCAGCCAACAATTGCCAGTCGGATAGTGTTCC	0.717
GATGGACCCTATACGCGGCCAAACTGATTTTGGGAAGCAGTCTAGAAAGATGCTTGAAAAATGTACTGATGTGTAATGCCAGCAGCAGGCCATTGTCATGGTATGGAATAATGGTGACTGAAAGTCATTCTCCCTTGCTTGGGATGATCTGTCTTAAGCATGAGCAGCTTGAGGCTGAATTGTAGACAATAAAACGTGAGTCCAATGACATGCCAGTCGGATAGTGTTCC	0.596
GATGGACCCTATACGCGGCCTCTGTCAGCCAGGCTGCCCTCCCTGCATTAGCCCTGTATCCAGGCTTCACTGCACATGGAAGCCCAGCCCCAACCCGCTGCCACTCCAGGTCAGTGGCAGGCCCTGCCCGGGGGACTGGGAGGTGGAGTCTATCAAGAGAGAGCTGGGTTGGGAGATGGATGTGCTGGGGGTGGCCTTGAAGACTTTGAATGCCAGTCGGATAGTGTTCC	2.23
GATGGACCCTATACGCGGCATGTGATAGTATTGGAATGCTATGATTGTTAATGTTGTGTCAACTTGAATGTGCCACAGGGTGCCCAGATTGAACATTATTTGGGGGTGTGTCTGTGAGGTTGTTCCCGATGAGATTAGCATTTGAATCAGTGGACTCAGAAAAGTTTCCCTCCCCATGTGAGTGGGCATCACCCAATCCATTGAAAGCCTTGCCAGTCGGATAGTGTTCC	1.76
GATGGACCCTATACGCGGCCTGTTTGGAAATTCATCATGGTAGAATGGAAAACACACATGCTCTGTAGTCAAGCACATCTAAGTGCCTCTTCCATCACTTACTGTCTGCATGACCATAAATCAGTCTGTCTGAGCCTCAGTTTTCTCATCCACCAAATGAAAGTAACACCTGACTCATGGAGTTTTCCTGCTGATGATATAATGAGATGATGCCAGTCGGATAGTGTTCC	0.13
GATGGACCCTATACGCGGCCAGGTCTCACTGTGCAAGGCAGGGATGCCCTGGGCTGTGGGAGCTGCCAGTGGGTGGGGCCTGCACACGTGGTCTGGGAGCAGTAACCCTGGAGACATCCTCTAGGCACGTGTGAGGCCTGGGAGACTCGGCAAGGAGGAGGGCTGAGAGCAGTGAAGTGTAGGGACAATGTATTAACAACAGGCTCAAACTGCCAGTCGGATAGTGTTCC	1.61
GATGGACCCTATACGCGGCAACCAGGGGGAGGGCATGGCACTTCCCAAGGCTATGCACCTGAATATGGGGTGTGTGTGTATGTGTGTGTGTGTGTGTGCACAGCTCAAGGCAATTCCACCCACAATTCAAGGAATATGGAGGCTGACAGACAAAGCTTGGATTTCAGATGTAAATAAAACTAGAGTTAATAAAAATGTTTACTGCAGTGCTGCCAGTCGGATAGTGTTCC	0.874
GATGGACCCTATACGCGGCATTAGGTTTCAATGAGACCATAAGGGTGAGGCCTGCTATGGTCTGAATGTTTGTGTTCCCCCCAAATTCATATGCTGAAACCCAGTCACTAGTATGGTGACAGTAGGAGGTGGGGTCTTTGGGAGATGATTAGGTCATGAGAGCAGAGAGCTCATGAATAGGACTGGTGCCCTTATAAAAGAGGCCTCAGATGCCAGTCGGATAGTGTTCC	2.25
GATGGACCCTATACGCGGCGTGTCCCTCTAGGGTGTGGCATAGTCTAACTGTCCTGCCAGAAGGGTCCAGGGTGTGGCTGGGTCTGAGCTAGTGGAGAACTGTGTGCATGCGATCAGGTGTGGGGACACAGTGCGTGTGTCCATGCATGCTCTTGTCAGAGAGAGGGTGATGGAGAGAGGAAGGAAGATCGAGAAAAACACAAAGACGTGTGCCAGTCGGATAGTGTTCC	1.79
GATGGACCCTATACGCGGCATTTGGGCATGGGTACTGATCTCATACATCAAACACACAAGTACATACATACAATGCACACACACAAACTCAGGAACACCTCCATGAATGCTGACCACATGCACTTGCATATGCAAGCATCAGGCATGCGCACACCCCCACCACCACATTCATGTGCATATGCAGACATGCACATACATGTGCACCTCCATTGCCAGTCGGATAGTGTTCC	1.34
GATGGACCCTATACGCGGCGTTTTTGTTGTTGGACTAAGATTGTATGTGACAGTGTTTGAGATTGTGCATGACAGTGTGTGTGATTATGTGAGACTGAGGGAGATGGTGTGACTTAGCACTGTATGTCATCCCGACAGTGAGTGTGACAGTGTGACTGAGAATGGCCTTATATGACCCATTGTGAGAGCAGGGCGGGCTACAATGTGGGGTGCCAGTCGGATAGTGTTCC	2
GATGGACCCTATACGCGGCGCCTGATCTATGTGCCCCACGCTTGGCAATGGGACTGGATTGGAGGCAGAGGATATGCATCTGAAAGTCAAGATACTTGCCAAGAGGAGAGGGAGAGGTGTTGGTGATGCAACCAGAATATCCATTACAGTAAACCAATTGTCAGAGCTACAAACTCTTCGTTTAATAGTCTTCCTATAGTCTCAGTCTTGTGCCAGTCGGATAGTGTTCC	0.346
GATGGACCCTATACGCGGCGCGGAAACCACCTCGACAGCCTCCAGAAAGGGGCGTGGCTGAAAATGTAGGGGCGTGGCCACGTGGGCATCAGGAAGAAGTAACCTGTTGAATCTATTTCTGCTCCCCACCCTTACTGCTTCCCATAAGGGGGAAGCCGCAGACTAATAAGCCTCTTCCAAAAAAGAGGTAAAGGGAGGTAGACAAGGGGCTGCCAGTCGGATAGTGTTCC	2.58
GATGGACCCTATACGCGGCCACGCTCATTTGTCTGGAGAAAACACTGAGACCTGGAGCATGTGTGTACATGCTCACCATACAGCCCGCCCCCGATGATTGTCAGGAGAGTCAGCTGATCTGAGAAAGTGACAAGCATTGGTCATTTCAGAGAAACCGGGAGTTGGGCTTTTTAAAAGAGGCATAAAGAAACTGGGAAAATGAGACTGAGTTGCCAGTCGGATAGTGTTCC	0.753
GATGGACCCTATACGCGGCTAAATAAAACTGAGGTTATATAGTCATGCATTTAATAATAGTGATAGATGCAGGAGGCATGCAGATGCAGATAAGGAAACCTGCACAGGGTCTTGCCCGGGCGTGCCTGCAAGGGACTGGGGCCCACATGTGCACTAGGAGAAGGGGGTGGAGCCACCAAGAATTCATGCCTTATGCAGGGGAGGAGACTGTGCCAGTCGGATAGTGTTCC	1.8
GATGGACCCTATACGCGGCCTAGAGCTGGTGGAGAGTCGGGAGAGGCAGCTGATCGGGCAGATAAGAGCAGATCATGTTGAGTCTTGTGCAGTTTGCGCAGAAGTTTGGATGTAACTCTGTAAGCATTAGAGAAATGTCATCTGGCAGCATTCATAGAAGCTATCACAAGAGGACCAGACAGAAGTCTGGTTTGAAACCAAGGCAACAACTGCCAGTCGGATAGTGTTCC	1.17
GATGGACCCTATACGCGGCATAAGAAAGACAGGACAGCCCTCCAAACCAGGACGTCATGGAGAGGTCAGCCCACCCAAAGAAGATGCAGCACATGCAGGGTGTGGAGAGGGAAGTTCACGGGTGACGGGAGACACTGCCCTACGCCGCTAAATCCCTGCAGCCTCCTCCCCCTCATCCCTGTAAAAGTGAGTCAGAAGAGCTCACTTGTCTGCCAGTCGGATAGTGTTCC	1.66
GATGGACCCTATACGCGGCATGTCTCTTTTTTCAAAAAGCAGCTGACCACCCATTTCCTGGCCCCACCCCTCCCACATTCTTCCAGCACATGCTCCTGTCTCCCTTGTAGTGCTGAGCACTGCTGTGACTGTACAGGGGTTGGGCCCTGCTTTTGATTAGTGCCTGTTTCTTATTGTGAGTTCCAAGAGGACATGTTCCTTTTACTCTGTTGCCAGTCGGATAGTGTTCC	1.72
GATGGACCCTATACGCGGCTTCACAGTACTACTCCCTACCTGACTGTCTCAGCATATGAATGCAAACTGCAGAAGGGTAGAAACTTGCTATTTACTGCAGTAGCCTCTGGCCCTAGGATACTTGCCTAACACTGCATGGATGTAATTGTCAGCCAGTCAATTGCATGGAATTTTGCTGAAAGTACAACTTTTGTCATTGCTTAGGAGAAGTGCCAGTCGGATAGTGTTCC	1.57
GATGGACCCTATACGCGGCTTTGTGTGGATGTGGTTGGTCAGAAGGCTTTGTGTGCACTGTGACATCTTTATGCTGCAGATGCCAAGATCACAGGGTCCACACAGAGCAGTTCATTTCACACAGTGGGAAATGATGCGTGTGTGTGTGTGGGTGGGTGTGTGTGTGTGTTTTAAAAAACCTAAACAGAGCAACACTGTTCTGTGCACTCATGCCAGTCGGATAGTGTTCC	1.57
GATGGACCCTATACGCGGCAGCCTGTCTGCAATTCTGCATCCACGTGCCTGCATGGTAATAACTGGCAGGAGCTGCACATGAGCTGCCTTTTGAGAAAGGGTCACACGCCCTTGAGTTCACTAGGTCCCCACCCAGCTGCTGTCTTACTCATCAACCTTTCCAACCAGGCCCTTGTTTGTTACCCTTGCGGCGGGGGAGGGGGGCGAAAATGCCAGTCGGATAGTGTTCC	1.88
GATGGACCCTATACGCGGCAGGGGGACAATGTCAAAGGCACATGGAAGCTCCCCTTTTATTATTAGCTGGGTGTGTGCCCAGCTCCTCCCAAACAGAACAGGGCTGGGACTCGAGGTGGAGGCTGAGGCTTAACCCCCTCCCTGGTGCCATTGTCCTGCAGACAGCCAGAGGGAGGAGGCACCAGCCCAAGGGAGGAGGTATTAGCCCTCTGCCAGTCGGATAGTGTTCC	2.43
GATGGACCCTATACGCGGCACAAGAAAGTAATCCACGGAAGGAACAAGAAGTGTCCTAAACAGTAGCAAACCTTACACATCAGGACAATCACACAGGCTCTGGTGTCAGATTCCAGCTTCAACCTCATCGGTGTGACCTCAAGCAACTCATGCGCCCTCTTTTTCTCATGTGAAGTGAGAATATCATTGGCCACACCAAGGGTAGCCTAGTGCCAGTCGGATAGTGTTCC	2.25

Laid out differently: entries from further up.
GATGGACCCTATACGCGGCATGTCTCTTTTTTCAAAAAGCAGCTGACCACCCATTTCCTGGCCCCACCCCTCCCACATTCTTCCAGCACATGCTCCTGTCTCCCTTGTAGTGCTGAGCACTGCTGTGACTGTACAGGGGTTGGGCCCTGCTTTTGATTAGTGCCTGTTTCTTATTGTGAGTTCCAAGAGGACATGTTCCTTTTACTCTGTTGCCAGTCGGATAGTGTTCC
  binding signal (log2 relative supershift) = 1.72
GATGGACCCTATACGCGGCTTCACAGTACTACTCCCTACCTGACTGTCTCAGCATATGAATGCAAACTGCAGAAGGGTAGAAACTTGCTATTTACTGCAGTAGCCTCTGGCCCTAGGATACTTGCCTAACACTGCATGGATGTAATTGTCAGCCAGTCAATTGCATGGAATTTTGCTGAAAGTACAACTTTTGTCATTGCTTAGGAGAAGTGCCAGTCGGATAGTGTTCC
  binding signal (log2 relative supershift) = 1.57

— publication PMC12370185
